The target of data set [1] is T1, EpCAM (human (breast and colon cancer cell lines)) (UniProt P16422).
T1 sequence: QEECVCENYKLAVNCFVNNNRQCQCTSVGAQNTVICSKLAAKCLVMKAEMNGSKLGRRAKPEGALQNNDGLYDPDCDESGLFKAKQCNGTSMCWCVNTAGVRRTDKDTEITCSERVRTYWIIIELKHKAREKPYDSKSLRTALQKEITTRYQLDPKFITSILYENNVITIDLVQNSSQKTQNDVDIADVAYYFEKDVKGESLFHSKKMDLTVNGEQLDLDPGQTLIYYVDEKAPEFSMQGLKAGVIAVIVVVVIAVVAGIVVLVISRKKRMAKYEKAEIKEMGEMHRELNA
The experiment in a line: flow cytometry. The following applies: T47D, MCF-7, MDA-MB-231, HT-29 cells, 100 nM, 2'-fluoropyrimidine (Methods: 2'-fluoropyrimidine or 2'-O-methyl-pyrimidine bases), 3' inverted dT, flow cytometry: 100 nM aptamer, 30 min, 37 C, protein on the cell surface. (In flow cytometry, cells or beads pass a laser one at a time.)

Data set [2] concerns the target T1, EpCAM (human (breast and colon cancer cell lines)). The experiment in a line: immunofluorescence of FFPE xenograft. The following applies: 3' inverted dT, FFPE staining: PBS, 5 mM MgCl2, 0.1 mg/mL tRNA, 1 mg/mL BSA, 10% dextran sulphate, 500 ug/mL heparin, 100 nM aptamer, 15 min, 37 C, protein on the cell surface.

For at least one entry, the source does not settle the construct or the ends of the probe. Where cells or extracts were used, other partners may take part. For part of these data: Negatives hold for the conditions tested. For part of these data: At least one verdict was read from the data and is not stated in words by the source.

Consider ACGUAUCCCUUUUCGCGUA [Ep23], for which the binding result in data set [1] (label: 5'-TYE665 (fluorescence) or 5'-FITC (chromogenic)) is on record as “binds”; in data set [2] (T47D 3+, MCF7 2+, MDA-MB-231 1+, HT-29 3+, 100 nM, 5 mM MgCl2, dextran sulphate, heparin, 2'-fluoropyrimidine (Methods: 2'-fluoropyrimidine or 2'-O-methyl-pyrimidine bases), label: 5'-TYE665 (fluorescence) or 5'-FITC (chromogenic)), “binds”.
GCGACUGGUUACCCGGUCG [DT3]: the binding result is given as “binds” in data set [1] (label: 5'-DY647); “no binding” in data set [2] (HT-29 xenograft, no staining at 100 nM, attributed to lower affinity, 2'-fluoropyrimidine (Methods: 2'-fluoropyrimidine or 2'-O-methyl-pyrimidine bases), label: 5'-DY647); “binds” in data set [2] (T47D 2+, MCF7 1+, MDA-MB-231 1+, 100 nM, 5 mM MgCl2, dextran sulphate, heparin, 2'-fluoropyrimidine (Methods: 2'-fluoropyrimidine or 2'-O-methyl-pyrimidine bases), label: 5'-DY647).
For GCGACUGGUUACCCGGUCG [Control aptamer], the binding result in data set [2] (T47D, MCF7, MDA-MB-231, HT-29 all negative, 2'-O-methyl at the positions marked m (mGCmGACUmGmGUUmACCCmGmGUcmG), same base sequence as DT3, label: 5'-DY647) is given as “no binding”.

For the origin of these results see publication PMC3584034.
